Reference: publication PMC10253026
No constants are given. Whether binding was seen depends on the method and setting. In cells and extracts the contact can be indirect. Some entries that bind do so weakly or less than the wild type.

Target: T1, Interleukin-4 cytokine receptor (IL-4R) (pig (endogenous in mini-pig tissue)) (UniProt Q863Z5)
T1 sequence: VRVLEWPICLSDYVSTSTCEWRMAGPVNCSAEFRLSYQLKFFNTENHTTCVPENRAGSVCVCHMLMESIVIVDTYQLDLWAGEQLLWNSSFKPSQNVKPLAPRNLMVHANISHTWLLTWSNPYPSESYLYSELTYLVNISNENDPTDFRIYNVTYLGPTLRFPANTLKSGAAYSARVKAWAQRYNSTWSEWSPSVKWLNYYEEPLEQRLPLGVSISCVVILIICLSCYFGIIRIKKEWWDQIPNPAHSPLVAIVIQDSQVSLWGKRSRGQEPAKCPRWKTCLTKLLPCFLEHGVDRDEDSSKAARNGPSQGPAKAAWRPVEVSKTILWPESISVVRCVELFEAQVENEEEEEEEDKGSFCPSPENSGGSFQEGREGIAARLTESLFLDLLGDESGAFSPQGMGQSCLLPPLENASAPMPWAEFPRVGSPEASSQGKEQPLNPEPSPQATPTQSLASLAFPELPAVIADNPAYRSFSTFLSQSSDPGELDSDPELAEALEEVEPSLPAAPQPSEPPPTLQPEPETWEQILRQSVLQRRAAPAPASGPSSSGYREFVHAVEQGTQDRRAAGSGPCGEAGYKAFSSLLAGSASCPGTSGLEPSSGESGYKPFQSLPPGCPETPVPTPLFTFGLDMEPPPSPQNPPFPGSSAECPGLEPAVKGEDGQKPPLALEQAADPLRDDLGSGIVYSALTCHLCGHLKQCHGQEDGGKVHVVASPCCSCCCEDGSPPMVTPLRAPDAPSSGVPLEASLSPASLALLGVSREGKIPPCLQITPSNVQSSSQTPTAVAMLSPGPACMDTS
Test: proximity ligation; in situ Duolink PLA (mouse/rabbit red kit) on 5 um paraffin sections of mini-pig skin (cut ear, day 2), lung (infected) and skeletal muscle (irradiated 50 Gy, day 76), wounded and healthy tissue; primary antibodies against cytokine and receptor overnight at 4 C; confocal microscopy

- binding: binds
B1: Interleukin-4 cytokine (IL-4) (ligand, UniProt Q04745 25-133)
chain: HKCDITLQEIIKTLNILTARKNSCMELPVTDVFAAPENTTEKETFCRASTVLRHIYRHHTCMKSLLSGLDRNLSSMANMTCSVHEAKKSTLKDFLERLKTIMKEKYSKC
